# Literature values, collected in patent US11318143B2, “Treatment of alcohol use disorder” (priority 2017, dated 2022).
# Some of these results come from one statement about several compounds together.
# System: subjects with alcohol use disorder
# Conditions: treatment of AUD, meta-analyses, literature; listed as naltrexone; cited from earlier work
smiles,measurement,value
O=C1CC[C@@]2(O)[C@H]3Cc4ccc(O)c5c4[C@@]2(CCN3CC2CC2)[C@H]1O5 [Naltrexone],effect size (Cohen's D),0.2-0.3
